The target in experiment [1] is T1, IGF2BP2 KH domain (residues 161-600), mammalian two-hybrid bait (human) (UniProt Q9Y6M1).
T1 sequence: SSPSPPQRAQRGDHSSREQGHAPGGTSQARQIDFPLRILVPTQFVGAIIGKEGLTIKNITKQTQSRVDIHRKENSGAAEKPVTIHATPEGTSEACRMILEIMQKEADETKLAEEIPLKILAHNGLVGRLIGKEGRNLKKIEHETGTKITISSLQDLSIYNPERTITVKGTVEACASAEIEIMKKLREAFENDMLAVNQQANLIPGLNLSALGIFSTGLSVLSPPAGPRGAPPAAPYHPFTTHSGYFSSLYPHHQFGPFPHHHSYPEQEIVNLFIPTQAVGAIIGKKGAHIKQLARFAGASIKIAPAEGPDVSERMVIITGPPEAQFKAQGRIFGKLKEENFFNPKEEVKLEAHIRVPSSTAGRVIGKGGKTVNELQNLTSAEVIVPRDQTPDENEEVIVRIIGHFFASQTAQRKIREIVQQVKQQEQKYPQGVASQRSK
Nature of the experiment: two-hybrid.

Protein sequences, listed by entry. Tags and fused reporters are not part of them. Lines headed by an entry give the natural chain unless they say otherwise; changes in a name come on top.
UniProt P35609: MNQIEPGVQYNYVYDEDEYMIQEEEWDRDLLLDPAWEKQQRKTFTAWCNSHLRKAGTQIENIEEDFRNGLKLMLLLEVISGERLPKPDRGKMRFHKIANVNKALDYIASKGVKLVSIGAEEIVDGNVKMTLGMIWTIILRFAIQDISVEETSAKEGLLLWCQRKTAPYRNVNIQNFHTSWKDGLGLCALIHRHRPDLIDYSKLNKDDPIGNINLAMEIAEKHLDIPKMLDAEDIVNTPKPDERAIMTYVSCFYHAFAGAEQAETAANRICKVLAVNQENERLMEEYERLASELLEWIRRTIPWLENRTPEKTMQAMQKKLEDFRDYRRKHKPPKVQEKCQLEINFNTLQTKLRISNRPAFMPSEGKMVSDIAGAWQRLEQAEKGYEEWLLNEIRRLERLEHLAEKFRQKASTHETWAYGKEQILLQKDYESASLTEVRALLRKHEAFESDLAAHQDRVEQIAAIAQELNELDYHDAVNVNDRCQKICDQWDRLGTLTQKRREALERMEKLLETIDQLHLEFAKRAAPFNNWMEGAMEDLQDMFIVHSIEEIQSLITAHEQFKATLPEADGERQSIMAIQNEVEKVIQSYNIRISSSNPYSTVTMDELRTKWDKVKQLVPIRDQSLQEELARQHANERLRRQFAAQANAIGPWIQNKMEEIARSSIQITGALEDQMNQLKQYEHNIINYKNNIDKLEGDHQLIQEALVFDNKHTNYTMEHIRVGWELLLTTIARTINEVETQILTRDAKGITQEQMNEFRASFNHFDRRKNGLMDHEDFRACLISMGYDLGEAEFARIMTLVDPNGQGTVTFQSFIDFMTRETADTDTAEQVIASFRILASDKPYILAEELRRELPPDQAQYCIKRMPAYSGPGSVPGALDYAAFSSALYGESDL

Experiment [2] addresses full-length actinin, mammalian two-hybrid bait (human) (UniProt P35609). Kind of experiment: two-hybrid.

Results are given in words; binding and its absence hold for the method and conditions named. Some results given as binding are weak or reduced against the parent protein; the word gives no strength.

Take “actinin rod domain (residues 276-750), mammalian two-hybrid prey (from UniProt P35609 276-750) (domain or fragment)”: the binding result in experiment [1] is reported as “binds”. Regarding “full-length IGF2BP2, mammalian two-hybrid prey (from UniProt Q9Y6M1 1-599)”, in experiment [2], the binding entry is given as “binds”.

Source of the values: publication doi:10.1101/2020.03.18.994004.
